Results are given in words; binding and its absence hold for the method and conditions named. For some of these results: Binding seen in cells or lysates may run through a third protein. For some of these results: Where a sequence is shown, tags or fusion partners need not be part of it.
Legend:
PmDAM5 (Prunus mume) = target: T1, PmDAM5 (Prunus mume) (UniProt G1UE18); assay: two-hybrid; yeast two-hybrid; full-length PmDAMs in pGBKT7 (bait) and pGADT7 (prey); each interaction screened in triplicate; baits without auto-activation or toxicity
T1 sequence: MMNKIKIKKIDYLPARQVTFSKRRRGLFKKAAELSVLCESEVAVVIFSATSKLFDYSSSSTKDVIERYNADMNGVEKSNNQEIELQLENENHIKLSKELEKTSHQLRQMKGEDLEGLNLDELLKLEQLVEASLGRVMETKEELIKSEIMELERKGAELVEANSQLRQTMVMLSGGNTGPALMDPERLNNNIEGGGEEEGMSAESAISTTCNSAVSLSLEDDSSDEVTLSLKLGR

PmDAM6 (Prunus mume) = target: T2, PmDAM6 (Prunus mume) (UniProt B9A1S9); assay: as above
T2 sequence: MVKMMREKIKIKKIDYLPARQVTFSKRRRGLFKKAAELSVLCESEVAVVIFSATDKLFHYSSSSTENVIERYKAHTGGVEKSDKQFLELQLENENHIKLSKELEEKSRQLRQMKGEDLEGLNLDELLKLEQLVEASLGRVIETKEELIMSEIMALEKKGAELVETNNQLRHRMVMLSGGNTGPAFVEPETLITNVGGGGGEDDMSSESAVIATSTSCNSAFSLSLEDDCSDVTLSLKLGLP

[1] = target: T3, PmDAM5-YFP^N / PmDAM5-YFP^C (Prunus mume) (UniProt G1UE18); assay: split reporter; BiFC with YFP^N and YFP^C fusions co-expressed in N. benthamiana leaves by agroinfiltration; confocal microscopy 2 days after infiltration, YFP excited at 514 nm
T3 sequence: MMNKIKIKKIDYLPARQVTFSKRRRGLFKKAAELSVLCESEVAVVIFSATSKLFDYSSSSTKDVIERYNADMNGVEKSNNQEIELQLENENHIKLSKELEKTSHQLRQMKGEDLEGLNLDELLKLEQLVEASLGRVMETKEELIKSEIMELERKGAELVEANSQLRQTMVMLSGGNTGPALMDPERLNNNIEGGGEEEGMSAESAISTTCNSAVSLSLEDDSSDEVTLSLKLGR

[2] = target: T4, PmDAM6-YFP^N / PmDAM6-YFP^C (Prunus mume) (UniProt B9A1S9); assay: as above
T4 sequence: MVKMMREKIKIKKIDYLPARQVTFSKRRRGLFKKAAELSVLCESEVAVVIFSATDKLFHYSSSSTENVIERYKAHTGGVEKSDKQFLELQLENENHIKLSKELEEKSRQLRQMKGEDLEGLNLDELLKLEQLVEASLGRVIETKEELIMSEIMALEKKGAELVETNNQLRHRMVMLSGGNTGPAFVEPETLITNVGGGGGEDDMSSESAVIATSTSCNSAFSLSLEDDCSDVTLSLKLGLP

PmDAM4 (Prunus mume) = assay: two-hybrid; yeast two-hybrid; full-length PmDAMs in pGBKT7 (bait) and pGADT7 (prey); each interaction screened in triplicate; baits without auto-activation or toxicity
[3] = target: PmDAM4-YFP^N / PmDAM4-YFP^C (Prunus mume); assay: split reporter; BiFC with YFP^N and YFP^C fusions co-expressed in N. benthamiana leaves by agroinfiltration; confocal microscopy 2 days after infiltration, YFP excited at 514 nm

PmDAM4 (Prunus mume)
binding (PmDAM5 (Prunus mume)): no binding
binding (PmDAM6 (Prunus mume)): no binding

PmDAM4-YFP^N / PmDAM4-YFP^C (Prunus mume)
binding [1]: no binding
binding [2]: no binding

B1: PmDAM3 (protein, UniProt G1UE21 1-235)
chain: MMRKKIKIKKIDCLPARQVTFSKRRRGIFKKAAELSVLCESKVAVVIFSATGKLFDYSSSSIKDVIESYKAHKNGVKKSDEPSVELQLENENHIGLSKELEEKSHQLRQQMKAEDLEELNFDELQKLEQLVDTSLSRVIETKEELRMSEIMALERKGAELVEANNQLKQTVMLSGGNTGPTLMDPERLNDNVGGGGEEEGMSSESAISTTCNSALSLSLGDDSDDVTLSLELGLP
binding (PmDAM4 (Prunus mume)): no binding

B2: PmDAM1-YFP^N / PmDAM1-YFP^C (protein, UniProt G1UE19 1-235)
chain: MKMMREKIKIKKIDNLPARQVTFSKRRRGIFKKAAELSVLCESEVAVVIFSATGKLFDYSSSSMKDVIERYQVHINGGEKFNERSIELQPEYENHIRLSKELKEKSRQLRQMKGEDLEELNFDELQKLEQLVDASLGRVIETKDERIMSEIMALERKRAELVKANKQLRQRMLFRGNIGPELMKPERLNNNFGGGGEEEGMSSESATSTTCNSAPSLSLEDDSDDVTLSLKLGLP
binding [3]: no binding

B3: PmDAM2-YFP^N / PmDAM2-YFP^C (protein, UniProt G1UE20 1-240)
chain: MVKTMRKKIKIKKIDYLPARQVTFSKRRRGIFKKAEELSVLCESEVAVVIFSATGKLFDYSSSSTKNVVERYKAHTNGVEKSDEPSVELQLEIENQIRLNKELAEKSRQLRQMRGEDLEKLNIDELQKLEQLVDASLGRVIETKEELIMSEIMALERKGAELVEANNQLRQRMVMLSRGNIGPGLTEPERFINNIGDGGEEGMSSESATNATISSCSSGLSLSLEDDCSDVTLALKLGLP
binding [3]: no binding

B4: PmDAM3-YFP^N / PmDAM3-YFP^C (protein, UniProt G1UE21 1-235)
chain: MMRKKIKIKKIDCLPARQVTFSKRRRGIFKKAAELSVLCESKVAVVIFSATGKLFDYSSSSIKDVIESYKAHKNGVKKSDEPSVELQLENENHIGLSKELEEKSHQLRQQMKAEDLEELNFDELQKLEQLVDTSLSRVIETKEELRMSEIMALERKGAELVEANNQLKQTVMLSGGNTGPTLMDPERLNDNVGGGGEEEGMSSESAISTTCNSALSLSLGDDSDDVTLSLELGLP
binding [3]: no binding

B5: PmDAM1 (protein, UniProt G1UE19 1-235)
chain: MKMMREKIKIKKIDNLPARQVTFSKRRRGIFKKAAELSVLCESEVAVVIFSATGKLFDYSSSSMKDVIERYQVHINGGEKFNERSIELQPEYENHIRLSKELKEKSRQLRQMKGEDLEELNFDELQKLEQLVDASLGRVIETKDERIMSEIMALERKRAELVKANKQLRQRMLFRGNIGPELMKPERLNNNFGGGGEEEGMSSESATSTTCNSAPSLSLEDDSDDVTLSLKLGLP
binding (PmDAM4 (Prunus mume)): no binding

B6: PmDAM2 (protein, UniProt G1UE20 1-240)
chain: MVKTMRKKIKIKKIDYLPARQVTFSKRRRGIFKKAEELSVLCESEVAVVIFSATGKLFDYSSSSTKNVVERYKAHTNGVEKSDEPSVELQLEIENQIRLNKELAEKSRQLRQMRGEDLEKLNIDELQKLEQLVDASLGRVIETKEELIMSEIMALERKGAELVEANNQLRQRMVMLSRGNIGPGLTEPERFINNIGDGGEEGMSSESATNATISSCSSGLSLSLEDDCSDVTLALKLGLP
binding (PmDAM4 (Prunus mume)): no binding

Reference: PMC5800298
